Measured values reported in patent publication US6849596B1, “Regulatory/unfolding peptides of ezrin” (priority 1999, dated 2005).
Part of at least one peptide drawing is inferred or uncertain, most often the ends. Where no end group is shown, it is not given here.

Tested on: antibody forming cells against sheep erythocytes (SRBC)
Assay: Antibody forming cells against sheep erythocytes (SRBC) in mice, plaque count
Format: in vivo
Conditions: four days after SRBC, thirty mice per data point
Description: Activity of Hepreceptor Peptides Enhancing the Antibody-Dependent Cytotoxic Response in […] to Sheep Red Blood Cells (SRBC) in Mice
The influence of Hepreceptor peptides on the activation of antibody forming cells against sheep erythocytes (SRBC) in Mice (CBA-C57B1 Fi hybrids. 2 months old, weight 18-22 grams) was determined. Mice were first injected intraperitoneally using either 0.5 ml sterile saline as a control or Hepreceptor peptides in the same volume of saline. 30 minutes after the injection of Hepreceptor peptides, a cell suspension containing 5 million SRBC was administered intraperitoneally to each mouse. Four days after the immunisation, the mice were killed by cervical dislocation and the spleens were obtained aseptically. Each spleen was homogenised in 2 ml of Medium 199, then 100 microliters of this suspension was put into 1 ml of prepared agarose in Medium 199 (stored in water bath at 48° C.), SRBC suspension was added, resulting in a final concentration of 1% agarose. The Im1 of agarose-cell mixture was agitated then transferred to petri dish to set. […] The dishes were then visualised using an 8×binocular microscope and the number of plaques counted (each plaque equivalent to one antibody secreting mouse spleen cell). […]

## TEKKRRETVEREKE [HEP1, TEKKRRETVEREKE]
IP injection 1 microgram per mouse
  number of antibody forming cells per one million nucleated spleen cells, re-based relative to 100 for control: 192
IP injection 10 micrograms per mouse
  number of antibody forming cells per one million nucleated spleen cells, re-based relative to 100 for control: 203
